Measured values: article PMC7819943, “Rice protein-binding microarrays: a tool to detect cis-acting elements near promoter regions in rice”
Some of the results follow.

Amino acid sequences for entries named in this document (tags omitted).
UniProt Q0JBA9, entry or part of it: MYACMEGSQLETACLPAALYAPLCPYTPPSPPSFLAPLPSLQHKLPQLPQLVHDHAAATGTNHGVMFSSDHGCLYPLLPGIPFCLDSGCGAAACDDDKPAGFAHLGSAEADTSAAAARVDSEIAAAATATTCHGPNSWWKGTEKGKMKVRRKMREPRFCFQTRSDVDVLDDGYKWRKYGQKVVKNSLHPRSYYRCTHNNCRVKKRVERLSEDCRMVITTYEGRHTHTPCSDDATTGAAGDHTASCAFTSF

target: OsWRKY34 (Oryza sativa, UniProt Q0JBA9 1-250); experiment: protein-binding microarray (RPBM); PBS, 2% BSA, 51.3 ng/ul salmon testes DNA, 50 uM zinc acetate, 200 nM TF, 25 C, 1 h; high values mean tight binding; details: protein: recombinant; tags: N-terminal polyhistidine and DsRed monomer fusion (pET32a); label: CyDye5-dUTP incorporated in the synthesized complementary strand; 3' TTTTT single-stranded linker to array surface; dsDNA, one strand shown
Method in brief: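 Binding signal is defined as the fluorescence intensity of each feature in arbitrary units, read on an Axon 4000B scanner. Transcription factors with N-terminal polyhistidine and DsRed fusions came from E. coli BL21-CodonPlus and were purified on Ni–NTA. They were incubated at 200 nM for 1 h at 25 °C on a custom Agilent array that had been made double-stranded with Cy5-dUTP, with 50 µM zinc acetate present, and the array was washed.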

Sequence	binding signal
CGACGAACTTGACTATTTGCTTCTTTTACTTCTTAATTTACGGAGTCACCTAGTGCAG	10300 fluorescence intensity (a.u.)
CTGGTATTGTGGTTTTCAAGTACGTAGGCCCTGTTTCTTTCGGAGTCACCTAGTGCAG	8740 fluorescence intensity (a.u.)
CCTCGGTCTGTTTAGTTCCCAAACAAAATTTTTCATGTTACGGAGTCACCTAGTGCAG	9960 fluorescence intensity (a.u.)
AGCTTGTCTGCGCATGCCTGTCAGTGTCAGTGAATATTACCGGAGTCACCTAGTGCAG	8710 fluorescence intensity (a.u.)
GCATCTCTGATACACCAACCCTGCATCCTTTTCCAGCCATCGGAGTCACCTAGTGCAG	8500 fluorescence intensity (a.u.)
GAAGATGCTGTGCACATTGATACTGGCTGTATCCATTTCTCGGAGTCACCTAGTGCAG	8040 fluorescence intensity (a.u.)
CGTGTTCTTCTCTGCCGCCATGCTAATACGAACTGATACCCGGAGTCACCTAGTGCAG	8610 fluorescence intensity (a.u.)
CGAAATTTCAGCATTCCTCGGGGTCCTGCGAGCAAAAAATCGGAGTCACCTAGTGCAG	8230 fluorescence intensity (a.u.)
CTAGCAGCCCTGTTACTCACACCCACCCAGTCGATTCATGCGGAGTCACCTAGTGCAG	8990 fluorescence intensity (a.u.)
CAGGAGTTGTGTGTTGTGTTTTTCTAACTTAGGGCGTATACGGAGTCACCTAGTGCAG	9980 fluorescence intensity (a.u.)
GCTCCGCCTCTGCGAGCTCCGCGTCGTCGTCGCCTGCACCCGGAGTCACCTAGTGCAG	8890 fluorescence intensity (a.u.)
TCCTCCTATAATTCACGCGCCACCGCTTGCTTGCATTGCACGGAGTCACCTAGTGCAG	8350 fluorescence intensity (a.u.)
ATTTCGCAGCTTGAACAGGGGAGGGGCGCGGGCGCCGAGCCGGAGTCACCTAGTGCAG	15000 fluorescence intensity (a.u.)
GTTCATACCATATTATCAAATTTGTTTAATTTTCAGAACTCGGAGTCACCTAGTGCAG	9040 fluorescence intensity (a.u.)
GGAGATGGGGAGAGGAGGCGGGCGCGGTGGCAGGCGGCGCCGGAGTCACCTAGTGCAG	9520 fluorescence intensity (a.u.)
TTCGGCCATCTTTTTTCGAACACACAAAAATTTATCATGTCGGAGTCACCTAGTGCAG	8850 fluorescence intensity (a.u.)
GTGGCTTGAAAGGTCTGTGTGTTCTTGTTTGGGATTGAGGCGGAGTCACCTAGTGCAG	8440 fluorescence intensity (a.u.)
TGTGGGCCCAATAACTTTTTTATTTTTTATTTTATTGACTCGGAGTCACCTAGTGCAG	9610 fluorescence intensity (a.u.)
GGTAAAAAATATATGGTTTTTGGGTTTAGGGGTACTTCGTCGGAGTCACCTAGTGCAG	8710 fluorescence intensity (a.u.)
TCACCTGTTTATGTTTGATCTGGACTATTATTCTCATGTTCGGAGTCACCTAGTGCAG	10600 fluorescence intensity (a.u.)
CTCTTTTGTTTTTAGGACTTATATGTGCTGCTTGTCAATGCGGAGTCACCTAGTGCAG	8410 fluorescence intensity (a.u.)

Laid out differently: entries from further up
Sequence | binding signal
GAAGATGCTGTGCACATTGATACTGGCTGTATCCATTTCTCGGAGTCACCTAGTGCAG | 8040 fluorescence intensity (a.u.)
GTTCATACCATATTATCAAATTTGTTTAATTTTCAGAACTCGGAGTCACCTAGTGCAG | 9040 fluorescence intensity (a.u.)
CTCTTTTGTTTTTAGGACTTATATGTGCTGCTTGTCAATGCGGAGTCACCTAGTGCAG | 8410 fluorescence intensity (a.u.)

Further records.

Sequence	binding signal
GGGTGGGAGTGGGATACAGTCAAGACTCCTTCAATAATCTCGGAGTCACCTAGTGCAG	8430 fluorescence intensity (a.u.)
GACACTGTTGACTTTTTAGCACATATTTGACCGTTCGTCTCGGAGTCACCTAGTGCAG	21300 fluorescence intensity (a.u.)
TTCTCTCGTCTCTTTTACCTCAATCTCACGTATATCTTGGCGGAGTCACCTAGTGCAG	10100 fluorescence intensity (a.u.)
GTCTCATCGTGATCGACGTTCACCTTTGATTCTATTTTAACGGAGTCACCTAGTGCAG	8910 fluorescence intensity (a.u.)
AAGCTCGTCCGCCACCGCGTCATCTCACAGGTTTACTATACGGAGTCACCTAGTGCAG	12700 fluorescence intensity (a.u.)
CATACTTTATTAATAACCGTGTCTAACCTTAAAACTTGTTCGGAGTCACCTAGTGCAG	8610 fluorescence intensity (a.u.)
ACACGCCCACGCCCACGCCCACGCCCACGGCCCACGGCGCCGGAGTCACCTAGTGCAG	10600 fluorescence intensity (a.u.)
TCCCTAAAATTTTTCACCCTTTCACATTAAACGTTTAACACGGAGTCACCTAGTGCAG	11400 fluorescence intensity (a.u.)
CCACTTTTTTAGCATCAAATTCGCATATCTTGACTTTTTTCGGAGTCACCTAGTGCAG	8700 fluorescence intensity (a.u.)
CCGATCTCCACCACCACCACCACCACGCGGGCGCGCGCACCGGAGTCACCTAGTGCAG	8080 fluorescence intensity (a.u.)
CATCGAAGTTTCTTTTTCAGCTTTTAATTTTCGATCGCTACGGAGTCACCTAGTGCAG	8160 fluorescence intensity (a.u.)
GCCACACTCCACCCAACCACCGGTCGCCGCCGGCGAGATGCGGAGTCACCTAGTGCAG	8090 fluorescence intensity (a.u.)
TACTAATTCGGCGTACATTCATTGACACACTTAAATTTTACGGAGTCACCTAGTGCAG	8910 fluorescence intensity (a.u.)
GCTCTCGTTTCCTCCGATCGACTAGCCGGCGTTGGAAGCCCGGAGTCACCTAGTGCAG	8260 fluorescence intensity (a.u.)
AAGTGTTTCCCTGGCCTCACCTTTTCTTTTAGCTACAGTACGGAGTCACCTAGTGCAG	10300 fluorescence intensity (a.u.)
GGCTTCGTTGTGATATGTGGAAGACGAGGGGCTTTTTCACCGGAGTCACCTAGTGCAG	10400 fluorescence intensity (a.u.)
GAACAGTGCTGGCACTAGGCCACTAGCTAAGTAGCTAGCTCGGAGTCACCTAGTGCAG	13000 fluorescence intensity (a.u.)
TCGCTGACCTGCCCGTGTTCGCCCCTCTCGCCGGCCGCCGCGGAGTCACCTAGTGCAG	8240 fluorescence intensity (a.u.)
CCATCCATCCAACCATCGATCGATCACTTCCAACTTATTTCGGAGTCACCTAGTGCAG	11800 fluorescence intensity (a.u.)
CCGTCAGGTGACGTTTCTCCAGAGGAGCTGCAGGGACCTCCGGAGTCACCTAGTGCAG	8390 fluorescence intensity (a.u.)
TATATTGTCTGTTTTCTCTTGAATCTTTCCTATCCAGTAGCGGAGTCACCTAGTGCAG	8490 fluorescence intensity (a.u.)

Sequence	binding signal
GGAGTAGTTTGGTTGGTTCGTTAAGGGACAGAGGGAGCTGCGGAGTCACCTAGTGCAG	10700 fluorescence intensity (a.u.)
CTCCAGCTATATAACCATCCTTGTGCCTCTCTTGCCACACCGGAGTCACCTAGTGCAG	8280 fluorescence intensity (a.u.)
GCTGCGAAGCCATCTTCTTCTCGGTCTCCACGCGCTTTCACGGAGTCACCTAGTGCAG	10000 fluorescence intensity (a.u.)
ACCCGTGCTGACTCAACTTGTTGACCAGAAACCACCCCACCGGAGTCACCTAGTGCAG	12100 fluorescence intensity (a.u.)
TCTCCTCTCTATTTTTTTTTAAAAAAAATCTGCTGCCCTTCGGAGTCACCTAGTGCAG	9270 fluorescence intensity (a.u.)
GTGTTCTCATTGTATTGGGTATTCAAATGTTTTGTAATATCGGAGTCACCTAGTGCAG	9730 fluorescence intensity (a.u.)
CTTGGATATGCATCGTGTTGTGTTGCGTGTTGCCGCTCCGCGGAGTCACCTAGTGCAG	10800 fluorescence intensity (a.u.)
ATCACTAATCTTTGTTGCTCTCTTTTCTTGTGTTCAGGCACGGAGTCACCTAGTGCAG	12800 fluorescence intensity (a.u.)
TTCCTCTGCTCTCTCTGGAACTCACCGCCCTCACTTCCACCGGAGTCACCTAGTGCAG	11900 fluorescence intensity (a.u.)
CTTTTCTTCATTGTCTTTTGGTTTAAGGTCCTCATTTTCCCGGAGTCACCTAGTGCAG	10800 fluorescence intensity (a.u.)
TACCCCTGAATTTTCATTTTGATCTCATCTATACCCATCTCGGAGTCACCTAGTGCAG	8070 fluorescence intensity (a.u.)
GTTGAAGTTTTTGGCAGGGGTTAGTTTCGAAATAAGTTTTCGGAGTCACCTAGTGCAG	8170 fluorescence intensity (a.u.)
GGGCCCCACAACAATCGCCCTCATGTTGAATCTTCGCGTCCGGAGTCACCTAGTGCAG	8900 fluorescence intensity (a.u.)
CCCGTTGTTCTTCCCTCGCTTGCACGCCGCCGCCGCCATGCGGAGTCACCTAGTGCAG	8360 fluorescence intensity (a.u.)
ATATTCTCTAGCTCCATGCCTTCATCTTGTTCAGGTTCCTCGGAGTCACCTAGTGCAG	8460 fluorescence intensity (a.u.)
GTCACCACGATCGCATTCACCTCCCATCCCACAATGTTGCCGGAGTCACCTAGTGCAG	8100 fluorescence intensity (a.u.)
TCTCCATCCGACACCTTCCGGTGCTTGCGCCCATCGATCCCGGAGTCACCTAGTGCAG	8650 fluorescence intensity (a.u.)
ATAAGGTTACGGTTAATTTTTAAGGGGTTTTCACTTGTTTCGGAGTCACCTAGTGCAG	9480 fluorescence intensity (a.u.)
TTCCACTTTGCACTAGGTTGCATCACATAATTAAAAACAACGGAGTCACCTAGTGCAG	8300 fluorescence intensity (a.u.)
TTACTTGTACTGTTTGACTATTCGTCTTATTCCAAAAAAACGGAGTCACCTAGTGCAG	8820 fluorescence intensity (a.u.)
GAAATCCTCGTGAATCTCTCGCTCTCTCGCCGCCGCCGCCCGGAGTCACCTAGTGCAG	8590 fluorescence intensity (a.u.)

Sequence	binding signal
CAGCAGCAGTGGTGGTGGTGGTTTTGGTAGTGGCTGGGAGCGGAGTCACCTAGTGCAG	9780 fluorescence intensity (a.u.)
ACCTCACCTCGTCCTCGTCGTCTTCTTCTCCCCACGCTTGCGGAGTCACCTAGTGCAG	11600 fluorescence intensity (a.u.)
GCACGCCATGTCAGCCGCCGCTTTGCTTTGCTCCACGTGTCGGAGTCACCTAGTGCAG	9610 fluorescence intensity (a.u.)
ACTCCCACTCCTCTCCACCTTCAAATCCACGCGAGTTGTTCGGAGTCACCTAGTGCAG	8640 fluorescence intensity (a.u.)
CTCGCGCCCGTTGCTGCCTTACACAGCACACCACACTACCCGGAGTCACCTAGTGCAG	9050 fluorescence intensity (a.u.)
CCTTTGTCAATCTCCACCACATCATCTCCTACCTCGTCCTCGGAGTCACCTAGTGCAG	8180 fluorescence intensity (a.u.)
TATTTAAAACAGTTTCCGTGTGCGCACACATATAAATACACGGAGTCACCTAGTGCAG	8240 fluorescence intensity (a.u.)
CCTTTTTGCTCCGATTCAATTTCTCGATCGTTTCTTTCCCCGGAGTCACCTAGTGCAG	9090 fluorescence intensity (a.u.)
GCTGACATATTGGCTTCACAATTGCTTTTCTTGTTACTTACGGAGTCACCTAGTGCAG	8900 fluorescence intensity (a.u.)
CGAGCAAGTGTGCAACTCGATCCACTCCACCGTTTGTCTTCGGAGTCACCTAGTGCAG	9270 fluorescence intensity (a.u.)
AATTGACTAGCTATAGTTTGATCTGATCGATCCGTTGTTTCGGAGTCACCTAGTGCAG	9500 fluorescence intensity (a.u.)
TCTTTCGTCGCAATGCCACGCCATCATCGATCCCTTTCCTCGGAGTCACCTAGTGCAG	10300 fluorescence intensity (a.u.)
AAAAGAAAAATTTTTTGTGTCACATCGGATGTTTGACCGGCGGAGTCACCTAGTGCAG	8370 fluorescence intensity (a.u.)
CCTCCATCTATTTCTGTGTTTGTGCTCCTCTACTGTCTCCCGGAGTCACCTAGTGCAG	8790 fluorescence intensity (a.u.)
ACTTTGTACTAGTTTTCATATTATGTCATTCTTTAACCATCGGAGTCACCTAGTGCAG	8420 fluorescence intensity (a.u.)
CCGCCTCCGCCGACGTGCGCTGCGGCCCACCTTTGCTTCTCGGAGTCACCTAGTGCAG	8500 fluorescence intensity (a.u.)
ATGGATCTCAGTGTTTATCACTCACACATCTTACATTCACCGGAGTCACCTAGTGCAG	8030 fluorescence intensity (a.u.)
GTTAGTAGATAGCTTTGCTCTCTTTCTCTTCATTTAATCTCGGAGTCACCTAGTGCAG	9320 fluorescence intensity (a.u.)
ACCTAGTACGTATACACCTCAATCCATTATAAATAGCAACCGGAGTCACCTAGTGCAG	8280 fluorescence intensity (a.u.)
CATATGTTGTTTTCTATTTCCCACTAATTTTCGTCATTTTCGGAGTCACCTAGTGCAG	10400 fluorescence intensity (a.u.)
ATTATCTTTGGTCTTGATGTATAAACTTATATGATGATCACGGAGTCACCTAGTGCAG	8320 fluorescence intensity (a.u.)
